Results published in paper PMC9248843, “Structural and biophysical studies of new L-asparaginase variants: lessons from random mutagenesis of the prototypic Escherichia coli Ntn-amidohydrolase” (Acta Crystallographica. Section D, Structural Biology, 2022).
No constants are given. Whether binding was seen depends on the method and setting. Some binding calls cover weakened binding; strength is not graded here. One block for each binder: values may come before it.

Key:
[1] = molecular target: T1, EcAIII α subunit (∼20 kDa) (Escherichia coli, UniProt P37595 1-178); assay: crystal structure; hanging-drop vapor diffusion at 20°C; 20–30% PEG 4000 or PEG 6000, 0.2 M MgCl2, 100 mM Tris–HCl pH 8.5; protein 10–15 mg/ml; space group P212121; both purified
T1 construct: EcAIII of Escherichia coli, α subunit: cut product of the precursor up to the scissile bond Gly178-Thr179; the linker is partly degraded, residues 158-178 are not visible in the structures; also called subunit α; source: E. coli BL21 Gold, purified (DEAE-Sepharose, SEC); formed by autocleavage of the precursor
T1 sequence (looked up): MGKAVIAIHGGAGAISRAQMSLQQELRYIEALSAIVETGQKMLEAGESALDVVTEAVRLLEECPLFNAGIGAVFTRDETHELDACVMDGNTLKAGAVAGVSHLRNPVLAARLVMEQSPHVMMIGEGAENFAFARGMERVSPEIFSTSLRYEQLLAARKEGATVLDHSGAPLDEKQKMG

[2] = molecular target: EcAIII variant RDM1-8, mature (processed into α/β subunits) (Escherichia coli) (UniProt P37595); assay: as above

- binding [1]: binds
B1: EcAIII β subunit of variant RDM1-8 (domain or fragment, UniProt P37595 179-321)
chain: TVGAVALDLDGNLAAATSTGGMTNKLPYQVGPTPLVGAGCYANNASVAVSCTGTGEVFIRALAAYDIAALMDYGGLSLAEACERVVMEKLPALGGSGGLIAIDHEGNVALPFNTEGMYRAWGYAGDTPTTGIYREKGDTVATQ

- binding [2]: binds
B2: EcAIII variant RDM1-8, mature (processed into α/β subunits) (complex, UniProt P37595 1-178; P37595 179-321)
chain 1: T1 sequence (looked up)
chain 2: B1 chain
